# Experimental data as given in the supplement of paper PMC8728848.
# The list shows a part of the results.
# B1: FimA (Actinomyces oris) (protein)
# chain: MHHHHHHSSGVDLGTENLYFQSNAETPNYGNIKTDATGSLVIHKHLTGGGKDIGTPTGTAQNADDKGPAVEGVVFTAYPITDINLKDPAGWDTISNLSRTGVPDSACANPAAPTLGAHQFGTPKVSPATTKEGLATITEMPVQAYLVCETTTPGDIVQKAKPFVVTIPHPNTAAGADGQWIYDVNVYPKNEAIDVDKTIQAQKLNGYGVGSLIKFPVESTAPTLDAKSFYKYFQLKDTLDERLSEVTATDVSLEGTPLQPTDYKVETKQQTVTVTFTAEGLKKIKAAPGKKVSAVFQGKVTKAGNGAITNRAQVISDTLYAEQPPTPETPPTDPENPPTSDEVISRWGDLSIKKVDTHQQGQTKAGLQGAQFQLYKAKNAYANTCSNEKEGAPIAINGQTTLTTDAQGAIDIKGLFISDSIDGADRDNQVNAMERCYVLVETKAPAGYVLPAGNGAATPVKVKAGEETTDNVTVENTKQSVPGLPLTG
# Columns and labels:
# Assay in all cases: glycan array binding signal (z-score within array); higher = stronger binding
# Settings in all cases: glycan notation: IUPAC condensed, linker removed
# [1] = target: Fuc(a1-2)[Gal(a1-3)]Gal(b1-4)GlcNAc(b1-2)Man(a1-3)[Fuc(a1-2)[Gal(a1-3)]Gal(b1-4)GlcNAc(b1-2)Man(a1-6)]Man(b1-4)GlcNAc(b1-4)[Fuc(a1-6)]GlcNAc
# In short: (§1)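 The binding signal is a Z-score computed within each array. Data were drawn from 3228 arrays in the Consortium for Functional Glycomics database, restricted to those with a known protein sequence. Scores were averaged over arrays of the same protein sequence at different concentrations or buffers, and over linkers, and negative values can be taken as non-binding.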
# [2] = target: Fuc(a1-2)[Gal(a1-3)]Gal(b1-4)GlcNAc(b1-3)GalNAc
# In short: as §1
# [3] = target: Fuc(a1-2)[Gal(a1-3)]Gal(b1-4)GlcNAc(b1-3)[Fuc(a1-2)[Gal(a1-3)]Gal(b1-4)GlcNAc(b1-6)]GalNAc
# In short: as §1
# [4] = target: Fuc(a1-2)[Gal(a1-3)]Gal(b1-4)GlcNAc(b1-6)GalNAc
# In short: as §1
# [5] = target: Fuc(a1-2)[Gal(a1-3)]Gal(b1-4)[Fuc(a1-3)]Glc
# In short: as §1
# [6] = target: Fuc(a1-2)[Gal(a1-3)]Gal(b1-4)[Fuc(a1-3)]GlcNAc
# In short: as §1
# [7] = target: Fuc(a1-2)[Gal(a1-3)]Gal(b1-4)[Fuc(a1-3)]GlcNAc(b1-3)GalNAc
# In short: as §1
# [8] = target: Fuc(a1-2)[Gal(a1-4)]Gal(b1-4)GlcNAc
# In short: as §1
# [9] = target: Fuc(a1-2)[GalNAc(a1-3)]Gal
# In short: as §1
# [10] = target: Fuc(a1-2)[GalNAc(a1-3)]Gal(b1-3)GalNAc(a1-3)[Fuc(a1-2)]Gal(b1-4)GlcNAc
# In short: as §1
# [11] = target: Fuc(a1-2)[GalNAc(a1-3)]Gal(b1-3)GalNAc(b1-3)Gal(a1-4)Gal(b1-4)Glc
# In short: as §1
# [12] = target: Fuc(a1-2)[GalNAc(a1-3)]Gal(b1-3)GlcNAc
# In short: as §1
# [13] = target: Fuc(a1-2)[GalNAc(a1-3)]Gal(b1-3)GlcNAc(b1-2)Man(a1-3)[Fuc(a1-2)[GalNAc(a1-3)]Gal(b1-3)GlcNAc(b1-2)Man(a1-6)]Man(b1-4)GlcNAc(b1-4)GlcNAc
# In short: as §1
# [14] = target: Fuc(a1-2)[GalNAc(a1-3)]Gal(b1-3)GlcNAc(b1-2)Man(a1-3)[Fuc(a1-2)[GalNAc(a1-3)]Gal(b1-3)GlcNAc(b1-2)Man(a1-6)]Man(b1-4)GlcNAc(b1-4)[Fuc(a1-6)]GlcNAc
# In short: as §1
# [15] = target: Fuc(a1-2)[GalNAc(a1-3)]Gal(b1-3)GlcNAc(b1-3)GalNAc
# In short: as §1
# [16] = target: Fuc(a1-2)[GalNAc(a1-3)]Gal(b1-3)GlcNAc(b1-6)GalNAc
# In short: as §1
# [17] = target: Fuc(a1-2)[GalNAc(a1-3)]Gal(b1-4)Glc
# In short: as §1
# [18] = target: Fuc(a1-2)[GalNAc(a1-3)]Gal(b1-4)GlcNAc
# In short: as §1
# [19] = target: Fuc(a1-2)[GalNAc(a1-3)]Gal(b1-4)GlcNAc(b1-2)Man
# In short: as §1
# [20] = target: Fuc(a1-2)[GalNAc(a1-3)]Gal(b1-4)GlcNAc(b1-2)Man(a1-3)[Fuc(a1-2)[GalNAc(a1-3)]Gal(b1-4)GlcNAc(b1-2)Man(a1-6)]Man(b1-4)GlcNAc(b1-4)GlcNAc
# In short: as §1
# [21] = target: Fuc(a1-2)[GalNAc(a1-3)]Gal(b1-4)GlcNAc(b1-2)Man(a1-3)[Fuc(a1-2)[GalNAc(a1-3)]Gal(b1-4)GlcNAc(b1-2)Man(a1-6)]Man(b1-4)GlcNAc(b1-4)[Fuc(a1-6)]GlcNAc
# In short: as §1
# [22] = target: Fuc(a1-2)[GalNAc(a1-3)]Gal(b1-4)GlcNAc(b1-3)Gal(b1-4)GlcNAc
# In short: as §1
# [23] = target: Fuc(a1-2)[GalNAc(a1-3)]Gal(b1-4)GlcNAc(b1-3)Gal(b1-4)GlcNAc(b1-3)Gal(b1-4)GlcNAc
# In short: as §1
# [24] = target: Fuc(a1-2)[GalNAc(a1-3)]Gal(b1-4)GlcNAc(b1-3)GalNAc
# In short: as §1
# [25] = target: Fuc(a1-2)[GalNAc(a1-3)]Gal(b1-4)GlcNAc(b1-3)[Fuc(a1-2)[GalNAc(a1-3)]Gal(b1-4)GlcNAc(b1-6)]GalNAc
# In short: as §1
# [26] = target: Fuc(a1-2)[GalNAc(a1-3)]Gal(b1-4)GlcNAc(b1-6)GalNAc
# In short: as §1
# [27] = target: Fuc(a1-2)[GalNAc(a1-3)]Gal(b1-4)[Fuc(a1-3)]GlcNAc
# In short: as §1
# [28] = target: Fuc(a1-2)[GalNAc(a1-3)]Gal(b1-4)[Fuc(a1-3)]GlcNAc(b1-3)GalNAc
# In short: as §1
# [29] = target: Fuc(a1-2)[GalNAc(a1-4)]Gal(b1-4)GlcNAc
# In short: as §1
# [30] = target: Fuc(a1-2)[GalNAc(b1-3)]Gal
# In short: as §1
# [31] = target: Fuc(a1-3)GlcNAc
# In short: as §1
# [32] = target: Fuc(a1-3)[Gal(b1-4)]Glc6S
# In short: as §1
# [33] = target: Fuc(a1-3)[Gal(b1-4)]GlcNAc
# In short: as §1
# [34] = target: Fuc(a1-3)[Gal(b1-4)]GlcNAc(b1-2)Man
# In short: as §1
# [35] = target: Fuc(a1-3)[Gal(b1-4)]GlcNAc(b1-2)Man(a1-3)[Fuc(a1-3)[Gal(b1-4)]GlcNAc(b1-2)Man(a1-6)]Man(b1-4)GlcNAc(b1-4)GlcNAc
# In short: as §1
# [36] = target: Fuc(a1-3)[Gal(b1-4)]GlcNAc(b1-2)Man(a1-3)[Fuc(a1-3)[Gal(b1-4)]GlcNAc(b1-2)Man(a1-6)]Man(b1-4)GlcNAc(b1-4)[Fuc(a1-6)]GlcNAc
# In short: as §1
# [37] = target: Fuc(a1-3)[Gal(b1-4)]GlcNAc(b1-3)Gal(b1-3)[Fuc(a1-4)]GlcNAc
# In short: as §1
# [38] = target: Fuc(a1-3)[Gal(b1-4)]GlcNAc(b1-3)Gal(b1-4)[Fuc(a1-3)]GlcNAc
# In short: as §1
# [39] = target: Fuc(a1-3)[Gal(b1-4)]GlcNAc(b1-3)Gal(b1-4)[Fuc(a1-3)]GlcNAc(b1-3)Gal(b1-4)[Fuc(a1-3)]GlcNAc
# In short: as §1
# [40] = target: Fuc(a1-3)[Gal(b1-4)]GlcNAc(b1-3)GalNAc
# In short: as §1
# [41] = target: Fuc(a1-3)[Gal(b1-4)]GlcNAc(b1-6)GalNAc
# In short: as §1
# [42] = target: Fuc(a1-3)[Gal(b1-4)]GlcNAc(b1-6)[Gal(b1-3)GlcNAc(b1-3)]Gal(b1-4)Glc
# In short: as §1
# [43] = target: Fuc(a1-3)[Gal(b1-4)]GlcNAc6S
# In short: as §1
# [44] = target: Fuc(a1-3)[Gal3S(b1-4)]Glc
# In short: as §1
# [45] = target: Fuc(a1-3)[Gal3S(b1-4)]GlcNAc
# In short: as §1
# [46] = target: Fuc(a1-3)[Gal3S(b1-4)]GlcNAc6S
# In short: as §1
# [47] = target: Fuc(a1-3)[GalNAc(b1-4)]GlcNAc
# In short: as §1
# [48] = target: Fuc(a1-3)[GalNAc(b1-4)]GlcNAc6S
# In short: as §1
# [49] = target: Fuc(a1-4)GlcNAc
# In short: as §1
# [50] = target: Fuc(b1-3)GlcNAc
# In short: as §1
# [51] = target: Gal(a1-2)Gal
# In short: as §1
# [52] = target: Gal(a1-3)Gal
# In short: as §1
# [53] = target: Gal(a1-3)Gal(b1-3)GlcNAc
# In short: as §1
# [54] = target: Gal(a1-3)Gal(b1-3)GlcNAc(b1-2)Man
# In short: as §1
# [55] = target: Gal(a1-3)Gal(b1-3)GlcNAc(b1-2)Man(a1-3)[Gal(a1-3)Gal(b1-3)GlcNAc(b1-2)Man(a1-6)]Man(b1-4)GlcNAc(b1-4)GlcNAc
# In short: as §1
# [56] = target: Gal(a1-3)Gal(b1-3)GlcNAc(b1-3)GalNAc
# In short: as §1
# [57] = target: Gal(a1-3)Gal(b1-3)GlcNAc(b1-6)GalNAc
# In short: as §1
# [58] = target: Gal(a1-3)Gal(b1-3)[Fuc(a1-4)]GlcNAc(b1-2)Man(a1-3)[Gal(a1-3)Gal(b1-3)[Fuc(a1-4)]GlcNAc(b1-2)Man(a1-6)]Man(b1-4)GlcNAc(b1-4)GlcNAc
# In short: as §1
# [59] = target: Gal(a1-3)Gal(b1-4)Glc
# In short: as §1
# [60] = target: Gal(a1-3)Gal(b1-4)GlcNAc
# In short: as §1
binder,measurement,setting,value
B1,glycan array binding signal (z-score),[1],0.074
same,glycan array binding signal (z-score),[2],-0.523
same,glycan array binding signal (z-score),[3],-0.46
same,glycan array binding signal (z-score),[4],-0.757
same,glycan array binding signal (z-score),[5],-0.593
same,glycan array binding signal (z-score),[6],-0.589
same,glycan array binding signal (z-score),[7],-0.23
same,glycan array binding signal (z-score),[8],5.14
same,glycan array binding signal (z-score),[9],-0.675
same,glycan array binding signal (z-score),[10],0.088
same,glycan array binding signal (z-score),[11],-0.724
same,glycan array binding signal (z-score),[12],-0.442
same,glycan array binding signal (z-score),[13],-0.552
same,glycan array binding signal (z-score),[14],-0.915
same,glycan array binding signal (z-score),[15],-0.36
same,glycan array binding signal (z-score),[16],-0.203
same,glycan array binding signal (z-score),[17],-0.796
same,glycan array binding signal (z-score),[18],-0.742
same,glycan array binding signal (z-score),[19],-0.624
same,glycan array binding signal (z-score),[20],2.33
same,glycan array binding signal (z-score),[21],-0.572
same,glycan array binding signal (z-score),[22],-0.04
same,glycan array binding signal (z-score),[23],-0.194
same,glycan array binding signal (z-score),[24],-0.408
same,glycan array binding signal (z-score),[25],-0.54
same,glycan array binding signal (z-score),[26],-0.298
same,glycan array binding signal (z-score),[27],-1.02
same,glycan array binding signal (z-score),[28],-0.449
same,glycan array binding signal (z-score),[29],1.81
same,glycan array binding signal (z-score),[30],-0.194
same,glycan array binding signal (z-score),[31],-1.01
same,glycan array binding signal (z-score),[32],1.02
same,glycan array binding signal (z-score),[33],-0.412
same,glycan array binding signal (z-score),[34],-0.211
same,glycan array binding signal (z-score),[35],-0.371
same,glycan array binding signal (z-score),[36],-0.345
same,glycan array binding signal (z-score),[37],-0.38
same,glycan array binding signal (z-score),[38],0.299
same,glycan array binding signal (z-score),[39],1.47
same,glycan array binding signal (z-score),[40],-0.195
same,glycan array binding signal (z-score),[41],-0.64
same,glycan array binding signal (z-score),[42],-0.539
same,glycan array binding signal (z-score),[43],0.324
same,glycan array binding signal (z-score),[44],-0.294
same,glycan array binding signal (z-score),[45],-0.551
same,glycan array binding signal (z-score),[46],-0.482
same,glycan array binding signal (z-score),[47],3.5
same,glycan array binding signal (z-score),[48],-0.45
same,glycan array binding signal (z-score),[49],0.328
same,glycan array binding signal (z-score),[50],0.27
same,glycan array binding signal (z-score),[51],-0.12
same,glycan array binding signal (z-score),[52],-0.183
same,glycan array binding signal (z-score),[53],-0.412
same,glycan array binding signal (z-score),[54],0.196
same,glycan array binding signal (z-score),[55],1.41
same,glycan array binding signal (z-score),[56],-0.651
same,glycan array binding signal (z-score),[57],-0.364
same,glycan array binding signal (z-score),[58],0.422
same,glycan array binding signal (z-score),[59],-0.298
same,glycan array binding signal (z-score),[60],-0.971

# A stretch of the results above, for reference:
binder,measurement,setting,value
B1,glycan array binding signal (z-score),[36],-0.345
same,glycan array binding signal (z-score),[37],-0.38
same,glycan array binding signal (z-score),[38],0.299
same,glycan array binding signal (z-score),[39],1.47
